Read-outs that look alike come from different tables or passages of the source. For at least one compound, name, drawing or mass did not settle the structure.
System: CLso
Format: cell-based, Candidatus Liberibacter solanacearum
Settings: 100 ppm, 48 h treatment, CLso-potato hairy roots

`CN(C)[C@@H]1C(O)=C(C(N)=O)C(=O)[C@@]2(O)C(O)=C3C(=O)c4c(O)cccc4[C@@](C)(O)[C@H]3[C@H](O)[C@@H]12` [oxytetracycline] was tested, and the “relative CLso titers versus DMSO control” value was “significantly suppressed CLso titers” and the “relative CLso titers versus DMSO control” value (listed as oxytetetracycline) was “decreased CLso titers”.

From patent US11254965B2 (priority 2015, dated 2022)
